Test results as given in article PMC12508185.
These are yes or no findings as the source states them, for the method shown. For part of these data: Binding seen in cells or lysates may run through a third protein. Some results given as binding are weak or reduced against the parent protein; the word gives no strength. For part of these data: Tags and fused reporters may be left off the sequences shown. Each block holds one binder with its values, some of them ahead of it.

Experiments:
[1] = target: T1, SRAS1.1-BD (Arabidopsis thaliana) (UniProt Q9FKX5); test: two-hybrid; SRAS1.1 in pGBKT7 (BD), DSK2A or DSK2B in pGADT7 (AD), yeast strain Gold; growth on SD/-Ade-His-Leu-Trp
T1 sequence: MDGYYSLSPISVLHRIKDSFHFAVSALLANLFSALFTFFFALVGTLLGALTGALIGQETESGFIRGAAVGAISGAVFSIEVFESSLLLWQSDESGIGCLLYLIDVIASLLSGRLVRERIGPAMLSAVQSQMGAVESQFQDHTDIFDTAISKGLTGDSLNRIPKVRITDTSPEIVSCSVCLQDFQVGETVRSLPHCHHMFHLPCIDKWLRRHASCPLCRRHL

[2] = target: T2, SRAS1.1-cLUC (Arabidopsis thaliana) (UniProt Q9FKX5); test: split reporter; luciferase complementation imaging (LCI) in N. benthamiana leaves; cLUC and nLUC fusions; 0.2 mM D-luciferin, CCD camera
T2 sequence: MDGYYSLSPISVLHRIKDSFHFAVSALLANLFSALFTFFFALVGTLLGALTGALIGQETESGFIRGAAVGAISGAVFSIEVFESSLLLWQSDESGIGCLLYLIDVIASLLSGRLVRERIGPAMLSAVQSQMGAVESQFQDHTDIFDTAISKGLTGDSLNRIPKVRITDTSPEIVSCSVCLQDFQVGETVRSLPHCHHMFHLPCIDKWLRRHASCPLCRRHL

[3] = target: T3, SRAS1.1-cYFP (Arabidopsis thaliana) (UniProt Q9FKX5); test: split reporter; BiFC in N. benthamiana leaves; cYFP and nYFP fusions; confocal microscopy after 48 h
T3 sequence: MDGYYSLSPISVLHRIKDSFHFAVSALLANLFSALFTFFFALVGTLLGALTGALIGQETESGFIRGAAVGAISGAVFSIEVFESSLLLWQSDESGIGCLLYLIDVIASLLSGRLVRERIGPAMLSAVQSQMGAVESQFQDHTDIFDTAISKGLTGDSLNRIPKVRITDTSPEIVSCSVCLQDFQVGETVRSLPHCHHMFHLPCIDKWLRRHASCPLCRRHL

[4] = target: T4, SRAS1.1-GFP (Arabidopsis thaliana) (UniProt Q9FKX5); test: co-IP; SRAS1.1-GFP co-infiltrated with DSK2A-HA or DSK2B-HA in N. benthamiana leaves; anti-GFP magnetic beads, 4 °C, 5-6 h; blots with anti-GFP and anti-HA
T4 sequence: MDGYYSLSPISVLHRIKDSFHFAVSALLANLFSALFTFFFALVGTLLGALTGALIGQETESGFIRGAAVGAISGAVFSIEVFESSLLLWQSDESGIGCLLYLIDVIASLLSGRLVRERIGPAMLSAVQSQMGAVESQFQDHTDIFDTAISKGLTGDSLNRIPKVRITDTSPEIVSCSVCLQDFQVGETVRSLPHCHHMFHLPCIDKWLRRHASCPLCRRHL

[5] = target: T5, DSK2B of the competitive pull-down (Arabidopsis thaliana) (UniProt Q9SII8); test: pull-down; competitive pull-down with rising SRAS1.2 levels (Appendix Fig. S8D); methods not given
T5 sequence: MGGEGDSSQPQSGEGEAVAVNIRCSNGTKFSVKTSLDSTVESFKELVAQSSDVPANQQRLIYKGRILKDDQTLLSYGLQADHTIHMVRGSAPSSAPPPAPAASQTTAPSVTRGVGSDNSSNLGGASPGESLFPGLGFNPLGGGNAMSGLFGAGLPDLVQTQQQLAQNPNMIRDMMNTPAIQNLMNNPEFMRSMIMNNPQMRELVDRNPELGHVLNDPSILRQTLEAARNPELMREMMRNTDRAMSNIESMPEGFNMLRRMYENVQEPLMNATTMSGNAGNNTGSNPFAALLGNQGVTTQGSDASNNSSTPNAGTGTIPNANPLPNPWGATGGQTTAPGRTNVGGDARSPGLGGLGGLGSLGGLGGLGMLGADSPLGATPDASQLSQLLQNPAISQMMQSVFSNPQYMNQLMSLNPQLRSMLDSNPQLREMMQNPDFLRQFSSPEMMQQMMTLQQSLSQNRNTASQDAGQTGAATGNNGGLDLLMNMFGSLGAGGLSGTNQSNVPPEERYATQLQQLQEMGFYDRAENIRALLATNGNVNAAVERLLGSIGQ

B1: DSK2A-AD (protein, UniProt Q9SII9 1-538)
chain: MGGEADSRQPLTAEGVAVAVNVRCSNGTKFSVTTSLDSTVESFKELIAQNSDVPANQQRLIYKGRILKDDQTLLSYGLQADHTVHMVRGFVPSSPSAPAANAGNQTTAPQAVGSNDSSNLGGGESLFPGLGFNPLGGGNAMAGLFGSGLPDLEQAQQQLAQNPNMIREMMNTPAIQNLMNNPEFMRSMIMNNPQMRELVDRNPELGHVLNDPSILRQTLEAARNPELMREMMRNTDRAMSNIESMPEGFNMLRRMYENVQEPLMNATTMSENAGNNTSSNPFAALLGNQGVTTQGSDTSNNISAPNAETGTPNANPLPNPWGATAGQTTAPGRTNAGLGGLGGLGGLGGLGMLGADSPLGATPDASQLSQILQNPAMSQMMQSVLSNPQYMNQLMSLNPQLRSMLDMNPQLREMMQNPDFLRQFSSPEMMQQMMSLQQSLFSQNRNTAGQDPTQTGAATGTANNGGLDLLMNMFGSLGAGGLSGTNQPNVPPEERFATQLQQLQEMGFYDRAENIRALLATNGNVNAAVERLLGSIGQ
binding [1]: binds

B4: DSK2A-HA (protein, UniProt Q9SII9 1-538)
chain: MGGEADSRQPLTAEGVAVAVNVRCSNGTKFSVTTSLDSTVESFKELIAQNSDVPANQQRLIYKGRILKDDQTLLSYGLQADHTVHMVRGFVPSSPSAPAANAGNQTTAPQAVGSNDSSNLGGGESLFPGLGFNPLGGGNAMAGLFGSGLPDLEQAQQQLAQNPNMIREMMNTPAIQNLMNNPEFMRSMIMNNPQMRELVDRNPELGHVLNDPSILRQTLEAARNPELMREMMRNTDRAMSNIESMPEGFNMLRRMYENVQEPLMNATTMSENAGNNTSSNPFAALLGNQGVTTQGSDTSNNISAPNAETGTPNANPLPNPWGATAGQTTAPGRTNAGLGGLGGLGGLGGLGMLGADSPLGATPDASQLSQILQNPAMSQMMQSVLSNPQYMNQLMSLNPQLRSMLDMNPQLREMMQNPDFLRQFSSPEMMQQMMSLQQSLFSQNRNTAGQDPTQTGAATGTANNGGLDLLMNMFGSLGAGGLSGTNQPNVPPEERFATQLQQLQEMGFYDRAENIRALLATNGNVNAAVERLLGSIGQ
binding [4]: binds

B7: DSK2B-HA (protein, UniProt Q9SII8 1-551)
chain: MGGEGDSSQPQSGEGEAVAVNIRCSNGTKFSVKTSLDSTVESFKELVAQSSDVPANQQRLIYKGRILKDDQTLLSYGLQADHTIHMVRGSAPSSAPPPAPAASQTTAPSVTRGVGSDNSSNLGGASPGESLFPGLGFNPLGGGNAMSGLFGAGLPDLVQTQQQLAQNPNMIRDMMNTPAIQNLMNNPEFMRSMIMNNPQMRELVDRNPELGHVLNDPSILRQTLEAARNPELMREMMRNTDRAMSNIESMPEGFNMLRRMYENVQEPLMNATTMSGNAGNNTGSNPFAALLGNQGVTTQGSDASNNSSTPNAGTGTIPNANPLPNPWGATGGQTTAPGRTNVGGDARSPGLGGLGGLGSLGGLGGLGMLGADSPLGATPDASQLSQLLQNPAISQMMQSVFSNPQYMNQLMSLNPQLRSMLDSNPQLREMMQNPDFLRQFSSPEMMQQMMTLQQSLSQNRNTASQDAGQTGAATGNNGGLDLLMNMFGSLGAGGLSGTNQSNVPPEERYATQLQQLQEMGFYDRAENIRALLATNGNVNAAVERLLGSIGQ
binding [4]: binds

B8: DSK2B-AD (protein, UniProt Q9SII8 1-551)
chain: MGGEGDSSQPQSGEGEAVAVNIRCSNGTKFSVKTSLDSTVESFKELVAQSSDVPANQQRLIYKGRILKDDQTLLSYGLQADHTIHMVRGSAPSSAPPPAPAASQTTAPSVTRGVGSDNSSNLGGASPGESLFPGLGFNPLGGGNAMSGLFGAGLPDLVQTQQQLAQNPNMIRDMMNTPAIQNLMNNPEFMRSMIMNNPQMRELVDRNPELGHVLNDPSILRQTLEAARNPELMREMMRNTDRAMSNIESMPEGFNMLRRMYENVQEPLMNATTMSGNAGNNTGSNPFAALLGNQGVTTQGSDASNNSSTPNAGTGTIPNANPLPNPWGATGGQTTAPGRTNVGGDARSPGLGGLGGLGSLGGLGGLGMLGADSPLGATPDASQLSQLLQNPAISQMMQSVFSNPQYMNQLMSLNPQLRSMLDSNPQLREMMQNPDFLRQFSSPEMMQQMMTLQQSLSQNRNTASQDAGQTGAATGNNGGLDLLMNMFGSLGAGGLSGTNQSNVPPEERYATQLQQLQEMGFYDRAENIRALLATNGNVNAAVERLLGSIGQ
binding [1]: binds

Continued, values first:

binding [2]: binds
B2: nLUC-DSK2A (protein, UniProt Q9SII9 1-538)
chain: MGGEADSRQPLTAEGVAVAVNVRCSNGTKFSVTTSLDSTVESFKELIAQNSDVPANQQRLIYKGRILKDDQTLLSYGLQADHTVHMVRGFVPSSPSAPAANAGNQTTAPQAVGSNDSSNLGGGESLFPGLGFNPLGGGNAMAGLFGSGLPDLEQAQQQLAQNPNMIREMMNTPAIQNLMNNPEFMRSMIMNNPQMRELVDRNPELGHVLNDPSILRQTLEAARNPELMREMMRNTDRAMSNIESMPEGFNMLRRMYENVQEPLMNATTMSENAGNNTSSNPFAALLGNQGVTTQGSDTSNNISAPNAETGTPNANPLPNPWGATAGQTTAPGRTNAGLGGLGGLGGLGGLGMLGADSPLGATPDASQLSQILQNPAMSQMMQSVLSNPQYMNQLMSLNPQLRSMLDMNPQLREMMQNPDFLRQFSSPEMMQQMMSLQQSLFSQNRNTAGQDPTQTGAATGTANNGGLDLLMNMFGSLGAGGLSGTNQPNVPPEERFATQLQQLQEMGFYDRAENIRALLATNGNVNAAVERLLGSIGQ

binding [3]: binds
B3: nYFP-DSK2A (protein, UniProt Q9SII9 1-538)
chain: MGGEADSRQPLTAEGVAVAVNVRCSNGTKFSVTTSLDSTVESFKELIAQNSDVPANQQRLIYKGRILKDDQTLLSYGLQADHTVHMVRGFVPSSPSAPAANAGNQTTAPQAVGSNDSSNLGGGESLFPGLGFNPLGGGNAMAGLFGSGLPDLEQAQQQLAQNPNMIREMMNTPAIQNLMNNPEFMRSMIMNNPQMRELVDRNPELGHVLNDPSILRQTLEAARNPELMREMMRNTDRAMSNIESMPEGFNMLRRMYENVQEPLMNATTMSENAGNNTSSNPFAALLGNQGVTTQGSDTSNNISAPNAETGTPNANPLPNPWGATAGQTTAPGRTNAGLGGLGGLGGLGGLGMLGADSPLGATPDASQLSQILQNPAMSQMMQSVLSNPQYMNQLMSLNPQLRSMLDMNPQLREMMQNPDFLRQFSSPEMMQQMMSLQQSLFSQNRNTAGQDPTQTGAATGTANNGGLDLLMNMFGSLGAGGLSGTNQPNVPPEERFATQLQQLQEMGFYDRAENIRALLATNGNVNAAVERLLGSIGQ

binding [3]: binds
B5: nYFP-DSK2B (protein, UniProt Q9SII8 1-551)
chain: MGGEGDSSQPQSGEGEAVAVNIRCSNGTKFSVKTSLDSTVESFKELVAQSSDVPANQQRLIYKGRILKDDQTLLSYGLQADHTIHMVRGSAPSSAPPPAPAASQTTAPSVTRGVGSDNSSNLGGASPGESLFPGLGFNPLGGGNAMSGLFGAGLPDLVQTQQQLAQNPNMIRDMMNTPAIQNLMNNPEFMRSMIMNNPQMRELVDRNPELGHVLNDPSILRQTLEAARNPELMREMMRNTDRAMSNIESMPEGFNMLRRMYENVQEPLMNATTMSGNAGNNTGSNPFAALLGNQGVTTQGSDASNNSSTPNAGTGTIPNANPLPNPWGATGGQTTAPGRTNVGGDARSPGLGGLGGLGSLGGLGGLGMLGADSPLGATPDASQLSQLLQNPAISQMMQSVFSNPQYMNQLMSLNPQLRSMLDSNPQLREMMQNPDFLRQFSSPEMMQQMMTLQQSLSQNRNTASQDAGQTGAATGNNGGLDLLMNMFGSLGAGGLSGTNQSNVPPEERYATQLQQLQEMGFYDRAENIRALLATNGNVNAAVERLLGSIGQ

binding [2]: binds
B6: nLUC-DSK2B (protein, UniProt Q9SII8 1-551)
chain: MGGEGDSSQPQSGEGEAVAVNIRCSNGTKFSVKTSLDSTVESFKELVAQSSDVPANQQRLIYKGRILKDDQTLLSYGLQADHTIHMVRGSAPSSAPPPAPAASQTTAPSVTRGVGSDNSSNLGGASPGESLFPGLGFNPLGGGNAMSGLFGAGLPDLVQTQQQLAQNPNMIRDMMNTPAIQNLMNNPEFMRSMIMNNPQMRELVDRNPELGHVLNDPSILRQTLEAARNPELMREMMRNTDRAMSNIESMPEGFNMLRRMYENVQEPLMNATTMSGNAGNNTGSNPFAALLGNQGVTTQGSDASNNSSTPNAGTGTIPNANPLPNPWGATGGQTTAPGRTNVGGDARSPGLGGLGGLGSLGGLGGLGMLGADSPLGATPDASQLSQLLQNPAISQMMQSVFSNPQYMNQLMSLNPQLRSMLDSNPQLREMMQNPDFLRQFSSPEMMQQMMTLQQSLSQNRNTASQDAGQTGAATGNNGGLDLLMNMFGSLGAGGLSGTNQSNVPPEERYATQLQQLQEMGFYDRAENIRALLATNGNVNAAVERLLGSIGQ

binding [5]: binds
B9: SRAS1.1 of the competitive pull-down (protein, UniProt Q9FKX5 1-221)
chain: MDGYYSLSPISVLHRIKDSFHFAVSALLANLFSALFTFFFALVGTLLGALTGALIGQETESGFIRGAAVGAISGAVFSIEVFESSLLLWQSDESGIGCLLYLIDVIASLLSGRLVRERIGPAMLSAVQSQMGAVESQFQDHTDIFDTAISKGLTGDSLNRIPKVRITDTSPEIVSCSVCLQDFQVGETVRSLPHCHHMFHLPCIDKWLRRHASCPLCRRHL
